Results on 32 molecules are retold here after patent US20250109210A1 (ABSCI, published 2025).

Chains of the proteins cited; added tags and fusions are not shown. Lines headed by an entry give the natural chain unless they say otherwise; changes in a name come on top. A line that says so, or that is headed by a name, gives the form on record, which may keep a tag or linker.
Cyno TL1A (G7PRK8, form named): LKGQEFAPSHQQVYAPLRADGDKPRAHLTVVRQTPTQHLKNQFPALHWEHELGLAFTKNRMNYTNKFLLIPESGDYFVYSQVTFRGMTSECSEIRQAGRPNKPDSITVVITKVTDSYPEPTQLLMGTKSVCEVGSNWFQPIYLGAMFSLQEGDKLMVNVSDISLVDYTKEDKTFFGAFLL

The labels stand for the following.
T1: TL1A on HEK293 cells overexpressing TL1A (UniProt O95150)
T1 sequence (looked up): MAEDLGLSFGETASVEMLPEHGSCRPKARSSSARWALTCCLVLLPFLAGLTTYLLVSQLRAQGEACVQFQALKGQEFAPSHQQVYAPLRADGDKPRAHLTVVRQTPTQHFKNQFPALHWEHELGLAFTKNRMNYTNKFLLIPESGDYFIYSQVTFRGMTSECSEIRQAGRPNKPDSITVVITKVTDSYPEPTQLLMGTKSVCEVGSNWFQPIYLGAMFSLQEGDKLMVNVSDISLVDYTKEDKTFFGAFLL

B1: Antibody 1 of Sequence Table 1, mAb format (antibody, human IgG1, kappa, N297A, V domains shown)
VH: QVQLQESGPGLVRPSQTLSLTCTVSGFDIQDTYMHWVRQRPGRGLEWMGRIEPAGGHTKYNPSLKSRVTITRDTSKNQVSLRLSSVTAADTAVYYCASSGGMPDLWGQGSLVTVSS
VL: DIQMTQSPSSLSASVGDRVTITCRASQGVEYMYWYQQKPGKAPKLLIYGASNLASGVPSRFSGSGSGTDFTFTISSLQPEDIATYYCQQWEGNPRTFGQGTKVEIKR
B2: Antibody 20 of Sequence Table 1, mAb format (antibody, human IgG1, kappa, N297A, V domains shown)
VH: B1 VH with G55S, S98R, L105M
VL: B1 VL with E30M
B3: Antibody 18 of Sequence Table 1, mAb format (antibody, human IgG1, kappa, N297A, V domains shown)
VH: B1 VH with I29M, Q30G, A97V, S98R, L105V
VL: B1 VL with Q27S, G28S, E30S, G49Y
B4: Antibody 9 of Sequence Table 1, mAb format (antibody, human IgG1, kappa, N297A, V domains shown)
VH: B1 VH with A97V, S98R, M102L, L105A
VL: B1 VL with E30G, G49S
B5: Antibody 10 of Sequence Table 1, mAb format (antibody, human IgG1, kappa, N297A, V domains shown)
VH: B1 VH with F27L, I29P, Q30D, A97V, S98I, M102L, L105V
VL: B1 VL
B6: Antibody 16 of Sequence Table 1, mAb format (antibody, human IgG1, kappa, N297A, V domains shown)
VH: B1 VH with I29M, D31S, A97V, S98R, M102L, L105V
VL: B1 VL
B7: Antibody 7 of Sequence Table 1, mAb format (antibody, human IgG1, kappa, N297A, V domains shown)
VH: B1 VH with I29M, Q30G, G55A, A97V, S98R, M102L, L105I
VL: B1 VL
B8: Antibody 11 of Sequence Table 1, mAb format (antibody, human IgG1, kappa, N297A, V domains shown)
VH: B1 VH with I29M, Q30G, A97V, S98R, L105V
VL: B1 VL with G49S
B9: Antibody 5 of Sequence Table 1, mAb format (antibody, human IgG1, kappa, N297A, V domains shown)
VH: B1 VH with I29M, G55S, A97V, S98R, M102L, L105V
VL: B1 VL with E30M
B10: Antibody 2 of Sequence Table 1, mAb format (antibody, human IgG1, kappa, N297A, V domains shown)
VH: B1 VH with F27L, I29P, Q30D, A97V, S98I, M102L, L105V
VL: B1 VL with Q27S, G28S, E30S, G49A, A50T
B11: Antibody 17 of Sequence Table 1, mAb format (antibody, human IgG1, kappa, N297A, V domains shown)
VH: B1 VH with I29M, Q30G, G55A, A97V, S98R, M102L, L105V
VL: B1 VL
B12: Antibody 19 of Sequence Table 1, mAb format (antibody, human IgG1, kappa, N297A, V domains shown)
VH: B1 VH with Q30T, A97V, S98R, M102L, L105V
VL: B1 VL with G49Y
B13: Antibody 6 of Sequence Table 1, mAb format (antibody, human IgG1, kappa, N297A, V domains shown)
VH: B1 VH with I29M, Q30A, A97V, S98R, M102L, L105M
VL: B1 VL with G49S
B14: Antibody 13 of Sequence Table 1, mAb format (antibody, human IgG1, kappa, N297A, V domains shown)
VH: B1 VH with I29Y, E52D, G55S, S98V, L105V
VL: B1 VL with G49A, A50T
B15: Antibody 15 of Sequence Table 1, mAb format (antibody, human IgG1, kappa, N297A, V domains shown)
VH: B1 VH with A97V, S98R, M102L, L105A
VL: B1 VL with V29I, E30Y
B16: Antibody 8 of Sequence Table 1, mAb format (antibody, human IgG1, kappa, N297A, V domains shown)
VH: B1 VH with I29M, D31S, A97V, S98R, M102L, L105V
VL: B1 VL with Q27S, G28S, E30S
B17: Antibody 3 of Sequence Table 1, mAb format (antibody, human IgG1, kappa, N297A, V domains shown)
VH: B1 VH with A97V, S98R, M102L, L105A
VL: B1 VL with E30R
B18: Antibody 4 of Sequence Table 1, mAb format (antibody, human IgG1, kappa, N297A, V domains shown)
VH: B1 VH with I29M, Q30A, A97V, S98R, M102L, L105M
VL: B1 VL with Q27S, G28S, E30S
B19: Antibody 12 of Sequence Table 1, mAb format (antibody, human IgG1, kappa, N297A, V domains shown)
VH: B1 VH with Q30T, A97V, S98R, M102L, L105V
VL: B1 VL with G49S
B20: Antibody 3 of Sequence Table 1, Fab format (Fab, V domains shown)
VH: B1 VH with A97V, S98R, M102L, L105A
VL: DIQMTQSPSSLSASVGDRVTITCRASQGVRYMYWYQQKPGKAPKLLIYGASNLASGVPSRFSGSGSGTDFTFTISSLQPEDIATYYCQQWEGNPRTFGQGTKVEIK
B21: Antibody 11 of Sequence Table 1, Fab format (Fab, V domains shown)
VH: B1 VH with I29M, Q30G, A97V, S98R, L105V
VL: B20 VL with R30E, G49S
B22: Antibody 13 of Sequence Table 1, Fab format (Fab, V domains shown)
VH: B1 VH with I29Y, E52D, G55S, S98V, L105V
VL: B20 VL with R30E, G49A, A50T
B23: Antibody 4 of Sequence Table 1, Fab format (Fab, V domains shown)
VH: B1 VH with I29M, Q30A, A97V, S98R, M102L, L105M
VL: B20 VL with Q27S, G28S, R30S
B24: Antibody 6 of Sequence Table 1, Fab format (Fab, V domains shown)
VH: B1 VH with I29M, Q30A, A97V, S98R, M102L, L105M
VL: B20 VL with R30E, G49S
B25: Antibody 2 of Sequence Table 1, Fab format (Fab, V domains shown)
VH: B1 VH with F27L, I29P, Q30D, A97V, S98I, M102L, L105V
VL: B20 VL with Q27S, G28S, R30S, G49A, A50T
B26: Antibody 8 of Sequence Table 1, Fab format (Fab, V domains shown)
VH: B1 VH with I29M, D31S, A97V, S98R, M102L, L105V
VL: B20 VL with Q27S, G28S, R30S
B27: Antibody 9 of Sequence Table 1, Fab format (Fab, V domains shown)
VH: B1 VH with A97V, S98R, M102L, L105A
VL: B20 VL with R30G, G49S
B28: Antibody 12 of Sequence Table 1, Fab format (Fab, V domains shown)
VH: B1 VH with Q30T, A97V, S98R, M102L, L105V
VL: B20 VL with R30E, G49S
B29: Antibody 10 of Sequence Table 1, Fab format (Fab, V domains shown)
VH: B1 VH with F27L, I29P, Q30D, A97V, S98I, M102L, L105V
VL: B20 VL with R30E
B30: Antibody 5 of Sequence Table 1, Fab format (Fab, V domains shown)
VH: B1 VH with I29M, G55S, A97V, S98R, M102L, L105V
VL: B20 VL with R30M
B31: Antibody 1 of Sequence Table 1, Fab format (Fab, V domains shown)
VH: B1 VH
VL: B20 VL with R30E
B32: Antibody 7 of Sequence Table 1, Fab format (Fab, V domains shown)
VH: B1 VH with I29M, Q30G, G55A, A97V, S98R, M102L, L105I
VL: B20 VL with R30E

Positions count from the first letter of the chain named. These are yes or no findings as the source states them, for the method shown. Some results given as binding are weak or reduced against the parent protein; the word gives no strength.

One test has as its target T1, TL1A on HEK293 cells overexpressing TL1A. Kind of test: flow cytometry, HEK293 cells overexpressing TL1A.
B1: the binding result is given as “binds”.

Consider B2, for which the binding result was “binds”.

For the molecule B3, the binding entry is “binds”.

As for B4, the binding entry is listed as “binds”.

As for B5, the binding entry is “binds”.

Regarding B6, the binding entry is recorded as “binds”.

Take B7: the binding entry is “binds”.

As to B8, the binding entry is recorded as “binds”.

For B9, the binding result is recorded as “binds”.

As to B10, the binding entry is listed as “binds”.

As for B11, the binding entry is on record as “binds”.

Consider B12, for which the binding entry is “binds”.

Take B13: the binding result is “binds”.

B14: the binding entry was “binds”.

B15: the binding entry is recorded as “binds”.

Take B16: the binding result was “binds”.

B17: the binding result is listed as “binds”.

Regarding B18, the binding result is on record as “binds”.

Consider B19, for which the binding entry is reported as “binds”.

The target in a further test is Cyno TL1A (cyno) (UniProt G7PRK8). Kind of test: SPR, mAb format.
Take B1: the binding result was “binds”.

As to B2, the binding result is recorded as “binds”.

Regarding B3, the binding result is given as “binds”.

In the case of B4, the binding entry is on record as “binds”.

B5: the binding result was “binds”.

With B6, the binding result was “binds”.

As for B7, the binding entry was “binds”.

Consider B8, for which the binding result is “binds”.

Take B9: the binding result is reported as “binds”.

Regarding B10, the binding entry is reported as “binds”.

On to B11, for which the binding result was “binds”.

As to B12, the binding entry is “binds”.

Take B13: the binding result is “binds”.

B14: the binding result is on record as “binds”.

Regarding B15, the binding result is “binds”.

As to B16, the binding result is recorded as “binds”.

With B17, the binding entry is reported as “binds”.

B18: the binding entry is given as “binds”.

B19: the binding entry is “binds”.

Another test shares this target. Nature of the test: SPR. Background: SPR reads the build-up and loss of mass on a sensor chip optically.
With B20, the binding result is “binds”.

As to B21, the binding result is on record as “binds”.

As for B22, the binding entry is given as “binds”.

For the molecule B23, the binding entry is reported as “binds”.

Turning to B24, the binding result is listed as “binds”.

Consider B25, for which the binding entry is given as “binds”.

Consider B26, for which the binding entry is listed as “binds”.

B27: the binding entry is “binds”.

B28: the binding entry is “binds”.

Turning to B29, the binding entry was “binds”.

Take B30: the binding result is “binds”.

With B31, the binding result is “binds”.

In the case of B32, the binding result is “binds”.

Another test shares this target. Kind of test: SPR, Fab format.
B20: the binding result was “binds”.

On to B21, for which the binding result is given as “binds”.

With B22, the binding entry is “binds”.

As for B23, the binding result is reported as “binds”.

In the case of B24, the binding entry is given as “binds”.

As to B25, the binding entry is listed as “binds”.

As for B26, the binding result was “binds”.

Take B27: the binding result is recorded as “binds”.

Take B28: the binding entry is “binds”.

Consider B29, for which the binding result is “binds”.

Take B30: the binding entry is “binds”.

For the molecule B31, the binding entry was “binds”.

For the molecule B32, the binding entry is listed as “binds”.

The target of a further test is Human TL1A (human) (UniProt O95150). Kind of test: SPR, Fab format.
Consider B20, for which the binding entry was “binds”.

Consider B21, for which the binding result is given as “binds”.

Consider B22, for which the binding entry is “binds”.

For the molecule B23, the binding result was “binds”.

For B24, the binding result was “binds”.

As to B25, the binding entry is “binds”.

In the case of B26, the binding result is “binds”.

With B27, the binding entry is listed as “binds”.

Take B28: the binding result is reported as “binds”.

Consider B29, for which the binding entry is “binds”.

Take B30: the binding result is listed as “binds”.

For the molecule B32, the binding result is recorded as “binds”.
